± gives the standard deviation of the averaged measurements. This is a selection; strong and weak results do not stand in their true shares. Small differences around the control level are noise.
Compound: Nc1ncnc2c1ncn2[C@@H]1O[C@H](COP(=O)(O)OP(=O)(O)OP(=O)(O)O)[C@@H](O)[C@H]1O [adenosine triphosphate]
Experiment: NP40-soluble protein abundance relative to vehicle (solubility fold change) (ratio); higher = more soluble protein in presence of ATP
Procedure, shortened: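 In three independent experiments, Jurkat crude lysate made by Dounce homogenisation was treated for 10 min at room temperature and then 3 min at 37 °C with eight concentrations ranging from 0.1 to 10 mM. It was then solubilised with 0.8% NP40 plus benzonase for 60 min at 4 °C and ultracentrifuged. The supernatant was TMT-labelled for LC-MS/MS, and each value is the fold change against the detergent-processed vehicle for the same replicate, using vsn-normalised intensities.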

Sequences of proteins named here, by UniProt entry; tags and fusion partners are left off. A change or cut given only in a name is not applied to a line headed by its entry.
UniProt Q9BXK5, whole entry: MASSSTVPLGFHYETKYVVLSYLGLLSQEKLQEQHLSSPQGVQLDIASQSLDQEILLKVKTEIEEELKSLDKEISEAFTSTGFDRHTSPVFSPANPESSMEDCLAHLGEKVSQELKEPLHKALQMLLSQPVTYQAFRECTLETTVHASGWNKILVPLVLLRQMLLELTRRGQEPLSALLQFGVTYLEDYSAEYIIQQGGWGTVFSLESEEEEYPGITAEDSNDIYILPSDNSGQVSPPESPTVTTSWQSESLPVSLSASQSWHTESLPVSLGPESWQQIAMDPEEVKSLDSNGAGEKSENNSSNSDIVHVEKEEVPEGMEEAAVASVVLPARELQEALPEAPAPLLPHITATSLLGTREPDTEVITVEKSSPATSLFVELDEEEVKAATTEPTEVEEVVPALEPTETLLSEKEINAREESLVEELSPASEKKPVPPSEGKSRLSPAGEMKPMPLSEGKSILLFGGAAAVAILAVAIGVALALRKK
UniProt Q9BRP4: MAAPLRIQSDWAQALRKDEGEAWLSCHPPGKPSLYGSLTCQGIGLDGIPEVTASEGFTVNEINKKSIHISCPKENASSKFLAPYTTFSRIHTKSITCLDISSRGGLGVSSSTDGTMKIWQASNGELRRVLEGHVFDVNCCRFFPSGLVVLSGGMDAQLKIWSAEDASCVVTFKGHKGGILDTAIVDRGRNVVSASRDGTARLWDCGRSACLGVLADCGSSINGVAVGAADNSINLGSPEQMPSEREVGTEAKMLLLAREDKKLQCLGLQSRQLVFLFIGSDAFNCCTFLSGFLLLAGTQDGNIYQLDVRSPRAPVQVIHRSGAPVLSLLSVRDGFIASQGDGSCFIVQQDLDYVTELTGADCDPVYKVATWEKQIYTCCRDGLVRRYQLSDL
UniProt Q9BSL1: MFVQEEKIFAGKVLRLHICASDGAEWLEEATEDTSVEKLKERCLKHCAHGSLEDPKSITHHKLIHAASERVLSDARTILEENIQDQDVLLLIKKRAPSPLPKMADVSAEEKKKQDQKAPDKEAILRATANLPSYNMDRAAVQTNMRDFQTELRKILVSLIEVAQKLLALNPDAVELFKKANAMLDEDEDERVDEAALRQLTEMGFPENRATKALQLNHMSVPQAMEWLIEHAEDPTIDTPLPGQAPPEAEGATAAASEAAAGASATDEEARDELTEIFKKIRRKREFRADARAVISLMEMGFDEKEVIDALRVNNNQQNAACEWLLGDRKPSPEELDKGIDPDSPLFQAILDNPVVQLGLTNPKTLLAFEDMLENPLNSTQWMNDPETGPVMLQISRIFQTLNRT
UniProt Q9BVM2: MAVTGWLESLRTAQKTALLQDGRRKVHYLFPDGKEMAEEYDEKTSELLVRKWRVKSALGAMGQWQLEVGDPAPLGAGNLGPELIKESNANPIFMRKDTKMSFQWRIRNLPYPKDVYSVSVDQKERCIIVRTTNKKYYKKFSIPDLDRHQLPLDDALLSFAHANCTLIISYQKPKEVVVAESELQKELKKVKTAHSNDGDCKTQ
UniProt Q9BXI6: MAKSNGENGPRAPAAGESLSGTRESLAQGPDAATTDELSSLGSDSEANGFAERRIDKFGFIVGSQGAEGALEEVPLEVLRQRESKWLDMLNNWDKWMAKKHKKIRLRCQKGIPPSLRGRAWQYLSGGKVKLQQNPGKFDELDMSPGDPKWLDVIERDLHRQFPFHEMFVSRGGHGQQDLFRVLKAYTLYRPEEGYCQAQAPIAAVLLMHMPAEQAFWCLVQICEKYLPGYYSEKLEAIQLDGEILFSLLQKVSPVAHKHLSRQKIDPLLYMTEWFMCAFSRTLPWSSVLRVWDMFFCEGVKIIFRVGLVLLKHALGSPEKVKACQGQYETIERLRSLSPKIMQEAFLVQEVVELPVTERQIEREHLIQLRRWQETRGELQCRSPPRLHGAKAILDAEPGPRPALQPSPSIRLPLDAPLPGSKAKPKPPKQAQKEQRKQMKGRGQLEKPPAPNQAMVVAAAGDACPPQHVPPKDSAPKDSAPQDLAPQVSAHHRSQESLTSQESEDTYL
UniProt Q99986: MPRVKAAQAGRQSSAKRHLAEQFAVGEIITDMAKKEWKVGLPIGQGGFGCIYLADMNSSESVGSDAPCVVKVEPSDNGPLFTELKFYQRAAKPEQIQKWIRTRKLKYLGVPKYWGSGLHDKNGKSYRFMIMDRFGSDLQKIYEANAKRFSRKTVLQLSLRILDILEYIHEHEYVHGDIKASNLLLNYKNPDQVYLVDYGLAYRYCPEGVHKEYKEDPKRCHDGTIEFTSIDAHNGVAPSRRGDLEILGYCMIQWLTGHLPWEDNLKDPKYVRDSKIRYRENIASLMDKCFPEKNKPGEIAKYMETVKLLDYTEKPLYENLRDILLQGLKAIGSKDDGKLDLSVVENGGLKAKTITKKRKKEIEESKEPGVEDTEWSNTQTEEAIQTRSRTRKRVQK
UniProt Q9BTL3: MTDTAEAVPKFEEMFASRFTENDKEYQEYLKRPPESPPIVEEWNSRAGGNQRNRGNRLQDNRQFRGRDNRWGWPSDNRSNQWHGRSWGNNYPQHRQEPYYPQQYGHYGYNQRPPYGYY
UniProt Q9BW91: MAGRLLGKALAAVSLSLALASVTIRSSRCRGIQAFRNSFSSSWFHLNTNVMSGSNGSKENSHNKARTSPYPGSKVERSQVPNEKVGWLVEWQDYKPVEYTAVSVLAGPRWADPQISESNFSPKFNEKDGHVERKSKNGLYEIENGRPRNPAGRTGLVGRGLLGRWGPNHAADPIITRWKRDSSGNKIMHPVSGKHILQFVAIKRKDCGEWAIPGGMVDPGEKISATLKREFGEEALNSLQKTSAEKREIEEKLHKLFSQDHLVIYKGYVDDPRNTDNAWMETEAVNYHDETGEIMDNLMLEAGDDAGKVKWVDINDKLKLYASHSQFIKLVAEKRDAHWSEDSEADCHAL
UniProt Q9BVC6: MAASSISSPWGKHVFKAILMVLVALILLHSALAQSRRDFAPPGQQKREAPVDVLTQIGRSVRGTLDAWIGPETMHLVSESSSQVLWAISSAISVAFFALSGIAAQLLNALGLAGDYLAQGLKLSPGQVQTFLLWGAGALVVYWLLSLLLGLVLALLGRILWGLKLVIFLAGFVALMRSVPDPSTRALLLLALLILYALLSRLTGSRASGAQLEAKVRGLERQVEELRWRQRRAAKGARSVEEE
UniProt Q9BTX1: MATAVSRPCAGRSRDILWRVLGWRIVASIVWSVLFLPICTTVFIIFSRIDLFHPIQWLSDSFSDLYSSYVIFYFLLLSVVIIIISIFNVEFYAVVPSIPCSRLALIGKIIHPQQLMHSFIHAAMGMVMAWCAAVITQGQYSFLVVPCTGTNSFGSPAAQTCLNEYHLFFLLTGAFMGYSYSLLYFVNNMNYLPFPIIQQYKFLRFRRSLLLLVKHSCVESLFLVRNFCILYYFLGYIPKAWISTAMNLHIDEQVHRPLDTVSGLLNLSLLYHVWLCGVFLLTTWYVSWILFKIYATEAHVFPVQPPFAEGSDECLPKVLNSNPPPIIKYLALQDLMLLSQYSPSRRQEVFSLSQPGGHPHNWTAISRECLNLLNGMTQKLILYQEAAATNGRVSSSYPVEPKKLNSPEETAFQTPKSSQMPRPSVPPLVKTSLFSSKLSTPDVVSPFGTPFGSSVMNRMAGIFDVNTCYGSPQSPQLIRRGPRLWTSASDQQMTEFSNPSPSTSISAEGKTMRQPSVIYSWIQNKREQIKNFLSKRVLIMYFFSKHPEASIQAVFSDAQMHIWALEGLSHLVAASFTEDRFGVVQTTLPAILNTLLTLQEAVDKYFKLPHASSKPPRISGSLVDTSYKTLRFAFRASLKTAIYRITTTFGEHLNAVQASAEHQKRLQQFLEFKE
UniProt Q9BTZ2: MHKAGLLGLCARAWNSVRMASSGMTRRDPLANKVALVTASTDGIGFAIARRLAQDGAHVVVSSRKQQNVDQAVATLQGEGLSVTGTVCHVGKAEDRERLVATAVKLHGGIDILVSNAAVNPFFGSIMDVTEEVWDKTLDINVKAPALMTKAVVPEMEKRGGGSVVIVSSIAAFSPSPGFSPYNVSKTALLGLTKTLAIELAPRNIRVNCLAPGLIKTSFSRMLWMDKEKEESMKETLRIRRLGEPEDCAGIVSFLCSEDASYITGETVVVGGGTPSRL
UniProt Q9BUA3: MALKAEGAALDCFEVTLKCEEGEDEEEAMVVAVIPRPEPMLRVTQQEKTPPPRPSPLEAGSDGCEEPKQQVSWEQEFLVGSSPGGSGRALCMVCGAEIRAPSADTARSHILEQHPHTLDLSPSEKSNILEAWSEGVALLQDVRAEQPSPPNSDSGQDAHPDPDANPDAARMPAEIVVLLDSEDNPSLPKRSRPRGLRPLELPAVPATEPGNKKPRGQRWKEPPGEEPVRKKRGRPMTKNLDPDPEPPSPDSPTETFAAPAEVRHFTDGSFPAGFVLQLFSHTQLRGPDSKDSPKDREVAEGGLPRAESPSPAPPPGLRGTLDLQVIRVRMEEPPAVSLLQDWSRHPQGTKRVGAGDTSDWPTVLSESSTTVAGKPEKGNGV
UniProt Q9BTK6, whole entry: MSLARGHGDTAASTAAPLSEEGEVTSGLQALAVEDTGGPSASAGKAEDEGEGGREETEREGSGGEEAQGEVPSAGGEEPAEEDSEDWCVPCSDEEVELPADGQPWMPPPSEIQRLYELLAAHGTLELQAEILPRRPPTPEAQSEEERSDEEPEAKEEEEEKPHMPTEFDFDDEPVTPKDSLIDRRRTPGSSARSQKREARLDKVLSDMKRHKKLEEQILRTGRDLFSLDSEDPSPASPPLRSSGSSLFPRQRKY
UniProt Q9BY49: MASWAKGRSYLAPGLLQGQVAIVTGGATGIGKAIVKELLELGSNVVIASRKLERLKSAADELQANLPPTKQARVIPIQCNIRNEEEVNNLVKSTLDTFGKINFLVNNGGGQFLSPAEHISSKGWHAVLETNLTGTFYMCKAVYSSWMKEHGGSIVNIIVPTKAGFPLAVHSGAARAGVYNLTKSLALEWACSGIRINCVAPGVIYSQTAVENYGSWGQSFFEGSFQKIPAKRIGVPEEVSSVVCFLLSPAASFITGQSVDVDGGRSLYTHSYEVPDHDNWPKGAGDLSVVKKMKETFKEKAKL
UniProt Q99653: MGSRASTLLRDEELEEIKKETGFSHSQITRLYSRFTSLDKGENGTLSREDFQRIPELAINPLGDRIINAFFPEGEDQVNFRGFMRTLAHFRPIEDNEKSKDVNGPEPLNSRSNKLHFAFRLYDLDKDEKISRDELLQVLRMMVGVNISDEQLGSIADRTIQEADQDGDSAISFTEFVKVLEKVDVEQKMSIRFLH
UniProt Q9BYC5: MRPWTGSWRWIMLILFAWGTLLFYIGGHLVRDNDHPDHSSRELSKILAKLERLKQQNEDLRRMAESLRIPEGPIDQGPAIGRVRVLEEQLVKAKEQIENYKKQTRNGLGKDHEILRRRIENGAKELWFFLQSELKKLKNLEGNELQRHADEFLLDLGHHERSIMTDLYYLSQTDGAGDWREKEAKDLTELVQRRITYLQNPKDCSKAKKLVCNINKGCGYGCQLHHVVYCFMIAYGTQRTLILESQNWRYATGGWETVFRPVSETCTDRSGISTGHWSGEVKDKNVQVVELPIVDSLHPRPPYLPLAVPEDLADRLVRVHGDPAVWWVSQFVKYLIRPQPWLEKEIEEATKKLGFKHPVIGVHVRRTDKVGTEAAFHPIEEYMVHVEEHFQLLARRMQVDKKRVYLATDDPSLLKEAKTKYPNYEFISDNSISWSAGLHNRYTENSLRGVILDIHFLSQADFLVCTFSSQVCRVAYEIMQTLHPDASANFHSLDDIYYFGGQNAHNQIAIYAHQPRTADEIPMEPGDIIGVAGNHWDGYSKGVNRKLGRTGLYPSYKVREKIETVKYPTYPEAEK
UniProt Q9BRQ0: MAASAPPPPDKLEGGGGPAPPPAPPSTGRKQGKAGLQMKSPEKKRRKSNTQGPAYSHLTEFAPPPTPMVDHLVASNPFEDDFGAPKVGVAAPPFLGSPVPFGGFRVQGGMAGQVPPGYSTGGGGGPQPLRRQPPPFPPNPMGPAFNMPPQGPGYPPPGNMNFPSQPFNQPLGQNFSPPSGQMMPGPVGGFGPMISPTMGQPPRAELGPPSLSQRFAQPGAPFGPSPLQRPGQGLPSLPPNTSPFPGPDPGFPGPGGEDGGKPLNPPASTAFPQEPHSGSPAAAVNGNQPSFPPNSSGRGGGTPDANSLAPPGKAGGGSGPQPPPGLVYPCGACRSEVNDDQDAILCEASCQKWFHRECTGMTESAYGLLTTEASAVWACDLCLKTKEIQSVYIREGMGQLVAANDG
UniProt Q9BS26: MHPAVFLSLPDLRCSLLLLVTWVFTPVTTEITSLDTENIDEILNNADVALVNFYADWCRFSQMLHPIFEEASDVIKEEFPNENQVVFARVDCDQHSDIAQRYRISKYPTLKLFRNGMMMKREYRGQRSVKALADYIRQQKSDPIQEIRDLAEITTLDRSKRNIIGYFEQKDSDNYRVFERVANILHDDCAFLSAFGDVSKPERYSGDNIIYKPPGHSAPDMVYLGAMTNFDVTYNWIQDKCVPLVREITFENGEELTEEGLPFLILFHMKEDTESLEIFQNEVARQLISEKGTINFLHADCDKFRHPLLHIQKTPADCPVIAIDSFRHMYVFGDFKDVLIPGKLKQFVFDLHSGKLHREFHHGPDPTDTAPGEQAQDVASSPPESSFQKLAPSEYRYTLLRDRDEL

Target	NP40-soluble protein abundance (concentration: 0.1mM)	NP40-soluble protein abundance (concentration: 0.5mM)	NP40-soluble protein abundance (concentration: 1mM)	NP40-soluble protein abundance (concentration: 2mM)	NP40-soluble protein abundance (concentration: 4mM)	NP40-soluble protein abundance (concentration: 6mM)	NP40-soluble protein abundance (concentration: 8mM)	NP40-soluble protein abundance (concentration: 10mM)
UniProt Q9BXK5 and related entries	0.988 ± 0.023	0.967 ± 0.024	0.958 ± 0.041	0.97 ± 0.011	0.957 ± 0.028	0.988 ± 0.021	0.926 ± 0.031	0.916 ± 0.052
PAAF1 (UniProt Q9BRP4)	1.06 ± 0.051	1.05 ± 0.011	1.02 ± 0.037	1.04 ± 0.02	1.01 ± 0.072	0.982 ± 0.02	0.977 ± 0.011	1.01 ± 0.023
UniProt Q9BWW4 and related entries	0.964 ± 0.11	0.952 ± 0.078	1.05 ± 0.11	0.958 ± 0.12	0.933 ± 0.12	0.999 ± 0.12	0.956 ± 0.056	0.906 ± 0.1
UBAC1 (UniProt Q9BSL1)	0.979 ± 0.013	0.999 ± 0.06	0.988 ± 0.025	1 ± 0.025	1.03 ± 0.033	1.04 ± 0.061	0.965 ± 0.034	0.98 ± 0.038
DPCD (UniProt Q9BVM2)	0.983 ± 0.028	1.04 ± 0.044	0.965 ± 0.024	1.02 ± 0.045	0.969 ± 0.01	0.933 ± 0.048	0.929 ± 0.069	1.01 ± 0.087
UniProt Q9BXI6 and related entries	0.994 ± 0.034	0.958 ± 0.045	0.935 ± 0.035	0.917 ± 0.032	0.927 ± 0.031	0.941 ± 0.038	0.895 ± 0.025	0.925 ± 0.045
VRK1 (UniProt Q99986)	1.09 ± 0.084	1.38 ± 0.062	1.39 ± 0.026	1.43 ± 0.021	1.44 ± 0.039	1.51 ± 0.057	1.52 ± 0.031	1.48 ± 0.063
UniProt Q9BTL3	0.899 ± 0.08	0.88 ± 0.026	0.928 ± 0.13	0.882 ± 0.066	0.95 ± 0.059	1 ± 0.11	0.888 ± 0.028	0.869 ± 0.059
UniProt Q9BW91 and related entries	1.03 ± 0.071	1.04 ± 0.074						
TMEM109 (UniProt Q9BVC6)	0.912 ± 0.038	0.811 ± 0.12	0.943 ± 0.051	0.962 ± 0.066	0.999 ± 0.082	0.915 ± 0.03	0.955 ± 0.046	0.91 ± 0.074
UniProt Q9BTX1 and related entries	0.985 ± 0.031	1.02 ± 0.012	1.01 ± 0.076	1.01 ± 0.071	1.03 ± 0.1	0.996 ± 0.13	1.06 ± 0.044	1.08 ± 0.084
DHRS4 (UniProt Q9BTZ2)	1.03 ± 0.021	1.03 ± 0.038	0.9895 ± 0.0086	0.987 ± 0.019	0.989 ± 0.043	0.956 ± 0.028	0.968 ± 0.035	0.988 ± 0.018
UniProt Q9BUA3	0.993 ± 0.091	1.01 ± 0.075	1.02 ± 0.11	1.03 ± 0.09	1.03 ± 0.082	1.04 ± 0.12	0.992 ± 0.08	1 ± 0.019
UniProt Q9BTK6	0.866 ± 0.19	0.829 ± 0.21						
UniProt Q9BZ29-4|A0A088AWN3|A0A0A0MRA7|A0A0A0MSY4|Q9BZ29 and related entries	1.1 ± 0.037	0.943 ± 0.065						
PECR (UniProt Q9BY49)	0.979 ± 0.061	0.933 ± 0.033	0.965 ± 0.093	0.966 ± 0.037	0.994 ± 0.073	0.984 ± 0.076	1.02 ± 0.053	1.05 ± 0.033
UniProt Q9BVP2 and related entries	1.15 ± 0.097	1.23 ± 0.078						
UniProt Q99653	0.982 ± 0.073	0.939 ± 0.086	0.961 ± 0.041	0.989 ± 0.011	0.983 ± 0.029	0.965 ± 0.054	0.961 ± 0.059	0.931 ± 0.037
FUT8 (UniProt Q9BYC5)	1.06 ± 0.027	1.07 ± 0.027	1 ± 0.035	0.987 ± 0.052	1.02 ± 0.025	0.9889 ± 0.0069	1.04 ± 0.045	1.01 ± 0.039
UniProt Q9BRQ0 and related entries	0.89 ± 0.13	0.896 ± 0.13	0.931 ± 0.11	0.887 ± 0.18	0.898 ± 0.15	0.944 ± 0.19	0.865 ± 0.15	0.909 ± 0.29
UniProt Q9BS26	1.02 ± 0.034	1.02 ± 0.062	0.982 ± 0.043	0.956 ± 0.035	0.943 ± 0.057	0.945 ± 0.067	0.952 ± 0.06	0.941 ± 0.054
MECR (UniProt Q9BV79)	1.02 ± 0.014	0.972 ± 0.014	0.969 ± 0.013	0.959 ± 0.056	0.964 ± 0.037	0.957 ± 0.054	0.94 ± 0.013	0.92 ± 0.012

2 entries drawn at random from the list so far:
Target	NP40-soluble protein abundance (concentration: 0.1mM)	NP40-soluble protein abundance (concentration: 0.5mM)	NP40-soluble protein abundance (concentration: 1mM)	NP40-soluble protein abundance (concentration: 2mM)	NP40-soluble protein abundance (concentration: 4mM)	NP40-soluble protein abundance (concentration: 6mM)	NP40-soluble protein abundance (concentration: 8mM)	NP40-soluble protein abundance (concentration: 10mM)
UniProt Q9BW91 and related entries	1.03 ± 0.071	1.04 ± 0.074						
UniProt Q9BRQ0 and related entries	0.89 ± 0.13	0.896 ± 0.13	0.931 ± 0.11	0.887 ± 0.18	0.898 ± 0.15	0.944 ± 0.19	0.865 ± 0.15	0.909 ± 0.29
